Laboratory results: PubChem BioAssay AID720505 (Drosophila RNAi Screening Center, 2013)
In all, the deposit lists about 20,000 reagents; below is a random part of those that have a named target and a result. Of all reagents, about 2,100 (10%) got an active call. 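Raw plate signals without normalisation; calls rest on control-based scores that were not deposited; replicate 2 separates called from uncalled poorly.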 Names joined by + are all predicted targets of the reagent. Not stated in the record: the amount of reagent, the time to read-out.

Purpose: 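Genes needed for store-operated calcium entry in fly cells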 (primary screen)
Cells: Drosophila S2R+ cells
Reagents: long dsRNA against Drosophila genes
Challenge: thapsigargin (2 µM) in calcium-free buffer to empty internal stores, then 2 mM calcium added back
Measured: 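Fluo-4 signal in 384-well plates read on a FLIPR after thapsigargin (2 µM, calcium-free) store depletion and 2 mM calcium add-back; unnormalised mean endpoint per well; screen run twice, selected wells retested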
Reading the numbers: calcium signal and retest calcium signal: higher = more calcium entry after store depletion
Call rule: 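Knock-downs counted as hits when calcium entry dropped relative to STIM1 positive and Rho1 negative controls present on each plate; roughly 1500 genes called, with reductions of differing size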
Calls: active = called as lowering calcium entry; inactive = not called

| gene knocked down | amplicon | calcium signal, replicate 1 | calcium signal, replicate 2 | retest calcium signal, replicate 1 | retest calcium signal, replicate 2 | Outcome |
| --- | --- | --- | --- | --- | --- | --- |
| CG14841 | DRSC14965 | 139 | 159 | – | – | inactive |
| TM9SF3 | DRSC09747 | 106 | 78.7 | – | – | inactive |
| Vha14-1 | DRSC07571 | 85.6 | 162 | – | – | inactive |
| CG8944 | DRSC20128 | 157 | 104 | 5955 | 142 | inactive |
| CG8944 | DRSC21342 | 123 | 119 | – | – | inactive |
| cyr | DRSC18017 | 187 | 125 | – | – | inactive |
| cyr | DRSC18018 | 183 | 162 | – | – | inactive |
| cyr | DRSC18021 | 168 | 135 | – | – | inactive |
| sbr | DRSC19770 | 73.7 | 56 | – | – | active |
| sbr | DRSC20368 | 48.1 | 40.3 | – | – | active |
| Dlip1 | DRSC18460 | 66.4 | 114 | – | – | inactive |
| eas | DRSC20329 | 108 | 129 | – | – | inactive |
| EMC4 | DRSC11638 | 98.9 | 98.9 | – | – | inactive |
| CG18131 | DRSC00517 | 153 | 134 | – | – | inactive |
| CG18131 | DRSC22983 | 125 | 122 | – | – | inactive |
| ZnT86D | DRSC16091 | 124 | 106 | – | – | inactive |
| UGP + PGRP-LF | DRSC10418 | 100 | 117 | – | – | inactive |
| Nmdmc | DRSC16760 | 110 | 154 | – | – | inactive |
| CG5815 | DRSC14135 | 163 | 198 | – | – | inactive |
| CG10748 | DRSC09797 | 81.6 | 66.6 | – | – | inactive |
| CG17839 | DRSC10290 | 127 | 148 | – | – | inactive |
| CG17839 | DRSC10291 | 93.7 | 165 | – | – | inactive |
| spi | DRSC03618 | 206 | 80.9 | – | – | inactive |
| CG42813 | DRSC15939 | 105 | 142 | – | – | inactive |
| CG17580 | DRSC06683 | 99.6 | 164 | – | – | inactive |
| CG7420 | DRSC00704 | 129 | 228 | – | – | inactive |
| Mst89B | DRSC16748 | 125 | 188 | – | – | inactive |
| CCHa2 | DRSC14835 | 151 | 196 | 10488 | 190 | inactive |
| hrg | DRSC07502 | 168 | 114 | – | – | inactive |
| fne | DRSC20332 | 86.6 | 93.9 | – | – | inactive |
| fne | DRSC22418 | 61 | 162 | – | – | inactive |
| TBC1D5 | DRSC16421 | 111 | 141 | – | – | inactive |
| Sec13 | DRSC14144 | 162 | 253 | – | – | inactive |
| Mkp3 | DRSC10084 | 84.1 | 70.9 | – | – | inactive |
| Mkp3 | DRSC10085 | 72.6 | 140 | – | – | inactive |
| CG9962 | DRSC00739 | 188 | 139 | – | – | inactive |
| Cngl | DRSC19089 | 87.4 | 91.4 | – | – | inactive |
| Cngl | DRSC19795 | 164 | 104 | – | – | inactive |
| Cngl | DRSC20318 | 75.7 | 53 | – | – | active |
| CG43153 | DRSC01189 | 201 | 87.1 | – | – | inactive |
| Task7 | DRSC16477 | 147 | 95.5 | – | – | inactive |
| CG15443 | DRSC00455 | 131 | 100 | – | – | inactive |
| ZnT63C | DRSC08519 | 108 | 103 | – | – | inactive |
| ZnT63C | DRSC21989 | 100 | 163 | – | – | inactive |
| CG32036 | DRSC10362 | 89 | 101 | – | – | inactive |
| CG46491 | DRSC06565 | 105 | 95.3 | – | – | inactive |
| CG46491 | DRSC06566 | 163 | 146 | – | – | inactive |
| ste24a | DRSC07314 | 120 | 93.2 | – | – | inactive |
| Ir56b | DRSC06543 | 186 | 159 | – | – | inactive |
| CG13557 | DRSC04195 | 91.9 | 218 | – | – | inactive |
| Gk2 | DRSC08610 | 101 | 98.5 | – | – | inactive |
| CG5323 | DRSC06929 | 149 | 196 | – | – | inactive |
| COX8 | DRSC11814 | 84.1 | 148 | – | – | inactive |
| PpY-55A | DRSC07513 | 144 | 117 | – | – | inactive |
| PpY-55A | DRSC23328 | 112 | 155 | – | – | inactive |
| CG5569 | DRSC04514 | 104 | 180 | – | – | inactive |
| CG10347 | DRSC19352 | 130 | 83.1 | – | – | inactive |
| CG9609 | DRSC20199 | 110 | 105 | – | – | inactive |
| CG6602 | DRSC10673 | 76.9 | 65.8 | – | – | inactive |
| zetaTry | DRSC07720 | 134 | 160 | – | – | inactive |
| tamo | DRSC04446 | 70 | 165 | – | – | active |
| Gbp2 | DRSC06069 | 114 | 130 | – | – | inactive |
| Rsph3 | DRSC09696 | 80.7 | 173 | – | – | inactive |
| Rsph3 | DRSC10211 | 118 | 75.7 | – | – | inactive |
| Isha | DRSC04456 | 145 | 102 | – | – | inactive |
| Rpt5 | DRSC16842 | 124 | 136 | – | – | inactive |
| csw | DRSC18756 | 97.2 | 113 | – | – | inactive |
| csw | DRSC23326 | 149 | 164 | – | – | inactive |
| SecCl | DRSC10887 | 101 | 188 | – | – | inactive |
| TotF | DRSC02305 | 79.9 | 110 | – | – | inactive |
| CG8117 | DRSC20082 | 67.1 | 117 | – | – | active |
| DIP-eta | DRSC02342 | 130 | 130 | – | – | inactive |
| CG10700 | DRSC02096 | 162 | 80.1 | – | – | inactive |
| CG31729 | DRSC02524 | 107 | 96.4 | – | – | inactive |
| CG31729 | DRSC02946 | 78 | 115 | – | – | inactive |
| CG14556 | DRSC14899 | 304 | 102 | – | – | inactive |
| Gprk1 | DRSC20732 | 77.2 | 8432 | – | – | inactive |
| Gprk1 | DRSC20916 | 81.8 | 6675 | – | – | inactive |
| Sema1a | DRSC03433 | 173 | 150 | – | – | inactive |
| GlyT | DRSC04512 | 108 | 225 | – | – | inactive |
| CG12849 | DRSC04129 | 129 | 191 | – | – | inactive |
| Fas3 | DRSC01638 | 71 | 206 | – | – | inactive |
| Fas3 | DRSC03326 | 113 | 101 | – | – | inactive |
| Fas3 | DRSC22776 | 112 | 199 | – | – | inactive |

7 entries from above in another layout:
gene knocked down,amplicon,"calcium signal, replicate 1","calcium signal, replicate 2","retest calcium signal, replicate 1","retest calcium signal, replicate 2",Outcome
csw,DRSC23326,149,164,,,inactive
SecCl,DRSC10887,101,188,,,inactive
TotF,DRSC02305,79.9,110,,,inactive
CG8117,DRSC20082,67.1,117,,,active
DIP-eta,DRSC02342,130,130,,,inactive
CG10700,DRSC02096,162,80.1,,,inactive
CG31729,DRSC02524,107,96.4,,,inactive
